In PubChem BioAssay AID504834 (National Center for Advancing Translational Sciences (NCATS), 2011):
Out of some 320,000 compounds screened, about 22,000 (6.9%) were called active. The inconclusive results got no clear call from the source; some entries with a clear call stand among them for comparison. The call rests on the fitted dose curve; in most records, active means well fitted inhibition curve with a large enough effect; inconclusive means small, poorly fitted or top-dose-only effect, or another doubt; inactive means no such curve, though single readings can be large or run the other way. Where the call is inconclusive, the potency comes from a doubtful curve fit.

Test: Primary qHTS for delayed death inhibitors of the malarial parasite plastid, 96 hour incubation
Conditions: P. falciparum luciferase reporter growth; series mostly up to 28.7 µM; activity change, negative = inhibition: at the top concentration
How it was run: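 Two parasite generations (96 h, 37 C, 5% CO2) of compound exposure in infected erythrocytes (0.05% parasitemia, 2% hematocrit). Luciferase-reporter P. falciparum; decreased luminescence indicates inhibited growth, aimed at apicoplast-acting delayed death.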
On the % scale 0 is the no-effect control and ±100 the full control effect; potency means the concentration at half of the fitted maximal effect.

Compound | activity change, negative = inhibition | Potency
O=C1C(=O)N(CCCn2ccnc2)C(c2ccc(Cl)cc2)/C1=C(\O)c1ccc2c(c1)OCCO2 (centres undefined) | inactive: 13.3% | –
CC(OC(=O)CNC(=O)c1sc2ccccc2c1Cl)C(=O)NC1(C#N)CCCCC1 (centres undefined) | – | inconclusive: 11.7 µM [inhibitor, single point]
Cc1ccc(C(O)P(=O)(OC2CCCCC2)OC2CCCCC2)cc1 (centres undefined) | – | inconclusive: 11.7 µM [inhibitor, single point]
C/C(=N\Nc1cc(C)nc(NCc2ccccc2)n1)c1ccc([N+](=O)[O-])cc1 | – | inconclusive: 0.329 µM [inhibitor, full curve, poor fit]
CCOC(=O)C(=CNc1cc(C(F)(F)F)ccc1N1CCOCC1)C(=O)OCC | – | inconclusive: 1.31 µM [inhibitor, full curve, poor fit]
Cc1ccc(NC(=O)c2sc3ncnc(N4CCN(c5ccccn5)CC4)c3c2C)c(C)c1 | – | inconclusive: 10.4 µM [inhibitor, single point]
Cc1cccc(N2C(=O)c3cccc4c(N)ccc(c34)C2=O)c1 | – | inconclusive: 14.7 µM [inhibitor, single point]
CCOc1ccc(N(C)S(=O)(=O)c2cc(-c3cc(C)no3)ccc2CC)cc1 | inactive: -18.8% | –
CCCCN(CCCC)C(=O)c1sc2nc(N3CCOCC3)c3c(c2c1N)CCCC3 | – | inconclusive: 13.1 µM [inhibitor, single point]
C[C@@H](NC(=O)c1nc[nH]c1C(=O)N[C@@H](Cc1ccccc1)C(=O)OC(C)(C)C)c1ccccc1 | – | inconclusive: 4.15 µM [inhibitor, partial curve, poor fit]
Cc1cc(C)cc(NC(=S)NCCN(C2CCCCC2)C2CCCC2)c1 | – | inconclusive: 0.0037 µM [inhibitor, full curve, poor fit]
C(=C\c1ccccc1)/CSc1nnc(-c2ccccc2)n1Cc1ccco1 | – | inconclusive: 1.04 µM [inhibitor, partial curve, poor fit]
Cc1cccc(NC(=O)CCCN2C(=O)c3cccc4cccc(c34)C2=O)c1 | inactive: 113% | –
COc1ccccc1NC(=O)N1CCN(c2ccccn2)CC1 | – | inconclusive: 14.7 µM [inhibitor, partial curve, poor fit]
CCOc1ccc(NS(=O)(=O)c2ccc(C(=O)NCC(c3ccc(OC)cc3)N3CCOCC3)cc2)cc1 (centres undefined) | – | inconclusive: 0.329 µM [inhibitor, full curve, poor fit]
COc1cccc(C(=O)N2CCN(C3CCCCC3)CC2)c1 | – | inconclusive: 18.5 µM [inhibitor, single point]
CCOc1ccc(-c2nc(S(=O)(=O)c3ccccc3)c(N3CCOCC3)o2)cc1 | – | inconclusive: 1.65 µM [inhibitor, full curve, poor fit]
N#CC1(c2ccccc2)CCC(=O)N1Cc1ccccc1 (centres undefined) | inactive: 14.5% | –
COc1ccc2oc(C(=O)OC(C)C(=O)N(C)c3ccccc3)c(C)c2c1 (centres undefined) | – | inconclusive: 10.4 µM [inhibitor, single point]
O=C(/C=C/Nc1ccc(Oc2ccccc2Cl)cc1)c1ccco1 | inactive: -26.7% | –
COc1ccc(C(NCC(=O)NC(C)c2ccc(Cl)cc2)c2ccccc2)cc1 (centres undefined) | inactive: 50.4% | –
CC(=O)Nc1ccc(-c2csc(N3CCC(C(N)=O)CC3)n2)cc1 | inactive: -4.67% | –
CC1CCCCC1NC(=O)CSc1nc2ccccc2c(=O)n1Cc1ccco1 (centres undefined) | – | inconclusive: 0.0026 µM [inhibitor, full curve, poor fit]

Compound | activity change, negative = inhibition | Potency
CC(C)/C=C/CN1CCN(CCCc2ccccc2)C(CCO)C1 (centres undefined) | – | inconclusive: 18.5 µM [inhibitor, single point]
CCN(C(=O)CCc1ccccc1)C1CCCCC1 | – | inconclusive: 18.5 µM [inhibitor, single point]
Cc1nc(Cl)cc(N/N=C/c2ccc(O)cc2O)n1 | – | inconclusive: 10.4 µM [inhibitor, single point]
CCNC(=O)NC(=O)C(C)OC(=O)c1oc2ccccc2c1CSC1CCCCC1 (centres undefined) | – | inconclusive: 5.86 µM [inhibitor, partial curve, poor fit]
COC(=O)c1ccccc1NC(=O)COC(=O)c1ccc(C)c(NC(=O)c2ccco2)c1 | – | active: 2.33 µM
N#Cc1ccc(C(=O)OCC(=O)Nc2cccc(S(=O)(=O)N3CCCCC3)c2)cc1 | – | inconclusive: 13.1 µM [inhibitor, single point]
COc1cc(S(=O)(=O)N(C)Cc2ccc3c(c2)OCCO3)ccc1NC(C)=O | – | inconclusive: 18.5 µM [inhibitor, single point]
COc1ccc(/C=C(/C#N)C(=O)NC2CCCCC2)cc1Br | – | inconclusive: 0.415 µM [inhibitor, full curve, poor fit]
COc1ccc(OC)c(/C=N/OC(=O)Nc2ccc(Cl)cc2)c1 | – | inconclusive: 4.15 µM [inhibitor, partial curve]
CC(=O)Nc1ccc([C@H]2[C@H](C)CC[C@H]3C(=O)N4[C@@H](CC[C@@H](C)[C@@H]4c4ccc(NC(C)=O)cc4)C(=O)N32)cc1 | inactive: -73.9% | –
CCOC(=O)[C@@H]1[C@H]2COc3ccc(Br)cc3[C@@H]2N2C(=O)N(c3ccccc3)C(=O)[C@@]12C | – | inconclusive: 10.4 µM [inhibitor, partial curve]
CCOc1cc(C)c(S(=O)(=O)Nc2ccc3cn[nH]c3c2)cc1C | – | inconclusive: 0.928 µM [inhibitor, partial curve, poor fit]
CC1CCC(C(C)C)C(OCC[N+](C)(C)C)C1 (centres undefined) | inactive: 14.8% | –
C[C@@H](C(=O)NCCc1ccccc1F)N1C(=O)N2CCc3c([nH]c4ccccc34)[C@@]2(C)C1=O | – | inconclusive: 18.5 µM [inhibitor, single point]
C=CCOC(=O)C1=C[C@@H](c2ccc(C(F)(F)F)cc2)[C@H](CCCO)[C@@H](OCC)O1 | – | active: 2.08 µM
CNC(=O)Nc1ccc(Cl)cc1 | inactive: 42.7% | –
Cc1ccc(N)cc1O | – | inconclusive: 4.65 µM [inhibitor, single point]
Cc1ccc(C)c(NC(=O)COC(=O)CCc2ccc(S(=O)(=O)N3CCOCC3)cc2)c1 | inactive: 15.9% | –
O=C(c1cc2nc(C3CC3)cc(C(F)F)n2n1)N1CCOCC1 | inactive: 48% | –
CC(=O)c1c(C)[nH]c(C(=O)CSc2nnc(N)s2)c1C | inactive: -0.0055% | –
O=C(/C=C/c1ccco1)N1CCN(c2ccc(F)cc2)CC1 | – | inconclusive: 11.7 µM [inhibitor, single point]
Nc1c(Cl)cc(-c2csc(NCCc3nc4cc(Cl)c(Cl)cc4n3CCCO)n2)cc1Cl | – | inconclusive: 18.5 µM [inhibitor, single point]
O=C(Cn1c2c(sc1=O)C1c3ccccc3OCC1CS2)Nc1ccc(Cl)c(Cl)c1 (centres undefined) | inactive: -22.6% | –

Complete entries, quoted from the list:
CC(C)/C=C/CN1CCN(CCCc2ccccc2)C(CCO)C1 (centres undefined) in the list: Potency: inconclusive: 18.5 µM [inhibitor, single point]
C[C@@H](C(=O)NCCc1ccccc1F)N1C(=O)N2CCc3c([nH]c4ccccc34)[C@@]2(C)C1=O in the list: Potency: inconclusive: 18.5 µM [inhibitor, single point]

Later entries:

Compound | activity change, negative = inhibition | Potency
COc1ccc(-n2nc3c(c2NC(=O)CCCCl)CSC3)cc1 | – | inconclusive: 18.5 µM [inhibitor, single point]
COC(C(=O)N1CCC(CCC(=O)Nc2ccccc2)CC1)c1ccccc1 (centres undefined) | inactive: -3.7% | –
C(=N\Nc1nc(-c2ccccc2)cs1)/c1cccnc1 | – | inconclusive: 18.5 µM [inhibitor, single point]
CC1(C)CC(=O)C2=C(C1)Oc1ncn(CCCO)c(=N)c1C2c1ccccc1 (centres undefined) | inactive: 20.9% | –
COc1ccc(-c2cc(C(=O)O)nc3ccc4ccccc4c23)cc1OC | – | inconclusive: 18.5 µM [inhibitor, single point]
C/C(=N\OCc1ccc(C#N)cc1)c1ccc(S(=O)(=O)N(C)C)cc1 | – | inconclusive: 10.4 µM [inhibitor, single point]
Cc1ccc(C)c(OCC(=O)NCC(C)(C)N2CCOCC2)c1 | – | inconclusive: 0.0233 µM [inhibitor, full curve, poor fit]
Cc1cc(-c2ccc(C)c(S(=O)(=O)N3CCN(C(=O)c4ccco4)CC3)c2)on1 | – | inconclusive: 18.5 µM [inhibitor, single point]
CC(Oc1ccccc1)C(=O)Nc1ccc(S(=O)(=O)N2CCOCC2)cc1 (centres undefined) | inactive: -1.41% [at 5.75 µM] | –
O=S(=O)(Nc1ccc(N2CCOCC2)cc1)c1ccc(F)cc1F | inactive: 1.9% | –
Cc1cc(C(=O)CCC(=O)N2CCN(c3ccccc3)CC2)c(C)s1 | inactive: 14.9% | –
CC1(C)N=C(c2cccs2)C(C)(C)N1O | – | inconclusive: 18.5 µM [inhibitor, single point]
CN(CCC#N)CC(=O)Nc1ccc(S(N)(=O)=O)cc1 | inactive: 14.2% | –
CCOC(=O)CSc1nc(C)cc(C)c1C(N)=O | – | inconclusive: 18.5 µM [inhibitor, single point]
O=C(COc1ccc(Cl)cc1)Nc1cc(S(=O)(=O)N2CCCCC2)ccc1N1CCCCC1 | – | active: 2.33 µM
O=C(Cn1c(C(F)(F)F)nc2ccccc21)c1ccc(Br)cc1 | – | inconclusive: 0.185 µM [inhibitor, full curve, poor fit]
CN(Cc1ccccc1)C(=O)Cn1c(=O)oc2cc(S(=O)(=O)NCc3ccccc3)ccc21 | inactive: -1.58% | –
Cc1cc(NC(=O)CCC(=O)N(C2CC2)C2(C(=O)NC3CCCC3)CCC(C)CC2)no1 (centres undefined) | – | inconclusive: 18.5 µM [inhibitor, single point]
O=C(COC(=O)c1ccc(Cl)cc1)NC1CCCCCC1 | inactive: 11.2% | –
C=CCn1c(-c2ccc(OC)cc2)nc2ccccc21 | inactive: 0.225% | –
CC(=O)Nc1ccccc1C(=O)OCc1ccc(F)cc1 | inactive: 10.3% | –
Cc1cccc(N=C2NC(=O)/C(=C/c3cn(C)c4ccccc34)S2)c1 | – | inconclusive: 1.65 µM [inhibitor, partial curve, poor fit]
O=C(NCC(c1ccco1)N1CCc2ccccc21)c1cccc([N+](=O)[O-])c1 (centres undefined) | – | inconclusive: 18.5 µM [inhibitor, single point]

Quoted at random: 2 entries already listed, in no set order.
Compound | activity change, negative = inhibition | Potency
CN(CCC#N)CC(=O)Nc1ccc(S(N)(=O)=O)cc1 | inactive: 14.2% | –
C(=N\Nc1nc(-c2ccccc2)cs1)/c1cccnc1 | – | inconclusive: 18.5 µM [inhibitor, single point]
